Measurements reported in PMC12508475.
Results are given in words; binding and its absence hold for the method and conditions named. Binding seen in cells or lysates may run through a third protein. Some entries that bind do so weakly or less than the wild type.

Sequences of proteins named here, by UniProt entry; tags and fusion partners are left off.
UniProt P28033: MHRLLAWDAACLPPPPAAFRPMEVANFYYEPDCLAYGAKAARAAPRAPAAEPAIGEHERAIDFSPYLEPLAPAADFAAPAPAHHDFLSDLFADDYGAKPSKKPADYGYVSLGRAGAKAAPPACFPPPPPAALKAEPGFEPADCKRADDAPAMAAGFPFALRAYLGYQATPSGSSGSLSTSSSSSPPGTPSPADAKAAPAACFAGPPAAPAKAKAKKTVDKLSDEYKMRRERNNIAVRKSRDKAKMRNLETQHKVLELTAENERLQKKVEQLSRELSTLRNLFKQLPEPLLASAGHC
UniProt Q8BTW9: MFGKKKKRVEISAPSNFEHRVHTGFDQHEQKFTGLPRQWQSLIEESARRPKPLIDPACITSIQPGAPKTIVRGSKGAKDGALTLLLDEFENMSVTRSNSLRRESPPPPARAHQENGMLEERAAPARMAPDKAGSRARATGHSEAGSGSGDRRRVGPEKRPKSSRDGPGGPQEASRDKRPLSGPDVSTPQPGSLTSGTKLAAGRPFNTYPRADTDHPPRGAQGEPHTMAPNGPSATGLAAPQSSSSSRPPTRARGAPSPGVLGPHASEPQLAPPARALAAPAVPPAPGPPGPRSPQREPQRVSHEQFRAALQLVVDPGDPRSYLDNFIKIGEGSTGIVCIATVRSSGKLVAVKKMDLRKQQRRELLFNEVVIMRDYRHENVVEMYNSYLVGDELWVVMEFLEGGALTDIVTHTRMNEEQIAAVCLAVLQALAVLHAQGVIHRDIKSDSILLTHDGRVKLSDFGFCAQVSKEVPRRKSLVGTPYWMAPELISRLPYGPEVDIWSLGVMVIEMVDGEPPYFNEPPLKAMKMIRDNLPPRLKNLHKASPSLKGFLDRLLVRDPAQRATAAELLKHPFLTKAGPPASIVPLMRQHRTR

Biological target: CCAAT/enhancer-binding protein β (C/EBPβ), endogenous in 3T3-L1 preadipocytes (mouse (endogenous in 3T3-L1)) (UniProt P28033)
Assay: co-IP; 3T3-L1 preadipocytes pretreated with or without 30 nM ND201651, then MDI; co-IP on day 1; 100 μg protein, antibody overnight at 4 °C, protein G agarose

binding: binds
Substance: p21-activated kinase 4 (PAK4), endogenous in 3T3-L1 preadipocytes (from UniProt Q8BTW9 1-593)
